Laboratory results: article PMC7950233
Results are given in words; binding and its absence hold for the method and conditions named. Binding seen in cells or lysates may run through a third protein. Some entries that bind do so weakly or less than the wild type.

By UniProt entry, the sequences of proteins in these tests, tags left out.
UniProt P30904: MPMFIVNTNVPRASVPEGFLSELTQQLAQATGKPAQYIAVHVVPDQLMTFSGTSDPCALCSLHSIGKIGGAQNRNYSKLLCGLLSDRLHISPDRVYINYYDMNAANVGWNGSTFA

Target: T1, CD74 receptor (rat (endogenous in primary joint capsule fibroblasts of SD rats)) (UniProt P10247)
T1 sequence: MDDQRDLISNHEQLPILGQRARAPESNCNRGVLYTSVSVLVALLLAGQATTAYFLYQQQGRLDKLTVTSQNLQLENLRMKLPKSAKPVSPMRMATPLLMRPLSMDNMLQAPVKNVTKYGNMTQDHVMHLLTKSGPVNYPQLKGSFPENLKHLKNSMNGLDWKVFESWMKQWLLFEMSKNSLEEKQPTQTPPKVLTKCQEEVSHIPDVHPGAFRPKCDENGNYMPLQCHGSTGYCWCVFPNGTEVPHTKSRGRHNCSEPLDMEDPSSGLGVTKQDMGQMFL
Assay: co-IP; total lysates (500 ug) of primary rat JFs treated with MIF for 24 h; precleared with protein A plus G-Sepharose, incubated with anti-MIF or anti-CD74 antibody at 4 C, protein A plus G-Sepharose; immunoblot with anti-MIF or anti-CD74

“Macrophage migration inhibitory factor (from UniProt P30904 1-115)” was tested, and the binding was “binds”.
